In all, about 360,000 compounds went through this assay and about 10,000 (2.8%) were called active. This list was built around the results that the source calls inconclusive (neither active nor inactive); the mix of calls is not that of the screen. The call rests on the fitted dose curve; in most records, active means well fitted inhibition curve with a large enough effect; inconclusive means small, poorly fitted or top-dose-only effect; inactive means flat fitted curve, though single readings scatter. Where the call is inconclusive, the potency comes from a doubtful curve fit.
What follows are compounds tested against Serine/threonine-protein kinase PLK1 (Homo sapiens) (UniProt P53350) (assay: qHTS for Inhibitors of PLK1-PDB (polo-like kinase 1 - polo-box domain): Primary Screen). Conditions: Plk1 PBD binding of FITC phosphopeptide, fluorescence polarization.
Further: nearly all actives have a fitted effect of over 65% in size.
On the % scale 0 is the no-effect control and ±100 the full control effect; potency means the concentration at half of the fitted maximal effect.
Wherever max response, negative = inhibition is given: series mostly up to about 57 µM.

Sequences of proteins named here, by UniProt entry; tags and fusion partners are left off.
UniProt P53350, whole entry, looked up: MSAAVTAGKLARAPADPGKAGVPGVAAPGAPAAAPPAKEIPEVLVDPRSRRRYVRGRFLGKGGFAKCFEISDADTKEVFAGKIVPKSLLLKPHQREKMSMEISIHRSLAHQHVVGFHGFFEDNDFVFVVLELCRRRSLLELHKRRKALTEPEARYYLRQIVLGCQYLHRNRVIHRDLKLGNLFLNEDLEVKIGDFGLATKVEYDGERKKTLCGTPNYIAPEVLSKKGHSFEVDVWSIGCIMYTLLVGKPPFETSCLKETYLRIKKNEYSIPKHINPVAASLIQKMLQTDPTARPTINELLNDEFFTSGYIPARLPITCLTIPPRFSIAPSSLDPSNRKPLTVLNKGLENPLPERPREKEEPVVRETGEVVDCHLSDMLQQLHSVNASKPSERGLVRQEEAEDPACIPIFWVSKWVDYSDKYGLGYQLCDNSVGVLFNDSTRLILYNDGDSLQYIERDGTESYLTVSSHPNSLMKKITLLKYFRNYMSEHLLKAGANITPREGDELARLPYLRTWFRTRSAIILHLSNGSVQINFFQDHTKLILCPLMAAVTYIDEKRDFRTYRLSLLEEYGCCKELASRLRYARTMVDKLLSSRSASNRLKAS

For `O=c1[nH][nH]c2c1[C@H](c1ccc(Cl)cc1)O[C@H](C1CC1)C2`, which Potency is on record?
Its Potency is active: 11.9 µM.

For `COc1ncnc2c1NC1=C(S2)C(=NCCC(=O)O)CC(C)(C)C1`, which Potency is on record?
Its Potency is inconclusive: 29.9 µM [inhibitor, single point].

`COCCCNc1nc2nonc2nc1N1CCN(C2CCCC2)CC1` was tested. Which max response, negative = inhibition did it give?
Its max response, negative = inhibition is inactive: 3.35%.

How did the max response, negative = inhibition turn out when `Oc1ccc(-c2csc(Nc3cccnc3)n2)cc1` was run?
The max response, negative = inhibition was inconclusive: -37.7% [inhibitor].

How did the Potency turn out when `CC(C)(C)Cc1nnc(NC(=O)CSc2ccccc2)s1` was run?
Its Potency is active: 5.32 µM.

How did the Potency turn out when `Cc1ccc(NC(=O)CC2SC3=NCCCN3C2=O)c(C)c1` (centres undefined) was run?
Its Potency is inconclusive: 18.9 µM [inhibitor, partial curve].

How did the Potency turn out when `S=C1NC(C23CC4CC(CC(C4)C2)C3)=CC(c2ccc3c(c2)OCO3)N1` (centres undefined) was run?
Its Potency is inconclusive: 15 µM [inhibitor, partial curve].

How did the max response, negative = inhibition turn out when `Clc1ccc(C2=NN(c3ccccc3)C(c3ccco3)C2)cc1` (centres undefined) was run?
The max response, negative = inhibition was inactive: -2.62%.

Which Potency does the source give for `COc1cc(C)ccc1OCCOc1cc(C)ccc1Cl` here?
The Potency was active: 23.8 µM.

With `CC(C)(C)Cc1nnc(NS(=O)(=O)Cc2ccccc2)s1` as the compound, how does the Potency read?
Its Potency is inconclusive: 16.8 µM [inhibitor, partial curve].

For `NS(=O)(=O)c1ccc(CNC(=O)/C=C/c2ccco2)cc1`, which Potency is on record?
Its Potency is inconclusive: 23.8 µM [inhibitor, single point].

For `CC(NC(=O)COc1ccc(/C=N/NS(=O)(=O)c2ccccc2)cc1)c1ccccc1` (centres undefined), which max response, negative = inhibition is on record?
The max response, negative = inhibition was inactive: -9%.

For `CC(=O)NCCN=C(C)c1sc2ccccc2c1O`, which max response, negative = inhibition is on record?
Its max response, negative = inhibition is inactive: -12.3%.

With `CCOC(=O)CSc1nnc(Cc2cc(=O)[nH]c(=O)[nH]2)n1-c1ccc(Cl)cc1` as the compound, how does the Potency read?
The Potency was inconclusive: 23.8 µM [inhibitor, partial curve].

How did the Potency turn out when `Cc1ccc(O)c(NS(=O)(=O)c2cccc3nsnc23)c1` was run?
Its Potency is inconclusive: 29.9 µM [inhibitor, partial curve].

How did the Potency turn out when `CCc1sc(C(=O)Nc2nc(-c3ccccn3)cs2)cc1C` was run?
The Potency was inconclusive: 18.9 µM [inhibitor, partial curve].

With `Cc1cc(Nc2ccc(Cl)cc2)nc(N)n1` as the compound, how does the max response, negative = inhibition read?
Its max response, negative = inhibition is inactive: -0.684%.

For `CC1(C)CC(=O)C(N=Nc2ccc(S(=O)(=O)N3CCOCC3)cc2)=C(O)C1`, which Potency is on record?
Its Potency is inconclusive: 1.34 µM [inhibitor, full curve, poor fit].

How did the Potency turn out when `O=C1c2ccccc2NC(c2cccc(O)c2)N1c1ccccc1` (centres undefined) was run?
Its Potency is inconclusive: 29.9 µM [inhibitor, partial curve].

Which max response, negative = inhibition does the source give for `CCN(CC)CCNCc1cc(Cl)c(OCC(=O)Nc2ccccc2)c(OC)c1` here?
The max response, negative = inhibition was inactive: 4.19%.

Which max response, negative = inhibition does the source give for `CN1CCN(C(=O)CN(C2CCCCC2)S(=O)(=O)c2ccc(Br)cc2)CC1` here?
The max response, negative = inhibition was inactive: 0.227%.

How did the Potency turn out when `COC(=O)c1sccc1NC(=O)c1cccnc1` was run?
The Potency was active: 26.7 µM.

With `Cc1nn(CCC(=O)NNC(=S)Nc2ccc([N+](=O)[O-])cc2)c(C)c1[N+](=O)[O-]` as the compound, how does the Potency read?
Its Potency is inconclusive: 29.9 µM [inhibitor, partial curve].

For `CCCc1nc2ccc(NC(=O)c3cccs3)cc2c(=O)n1Cc1ccccc1Cl`, which Potency is on record?
The Potency was active: 29.9 µM.

`O=C(Cn1cnc2sc(-c3ccccc3)cc2c1=O)NCc1ccco1` was tested. Which Potency did it give?
Its Potency is active: 2.67 µM.

Which max response, negative = inhibition does the source give for `CC(Oc1cccnc1[N+](=O)[O-])C(=O)Nc1cccc(Cl)c1` (centres undefined) here?
Its max response, negative = inhibition is inactive: 0.627%.

How did the Potency turn out when `CC(C)C(Cl)=NOC(=O)Nc1ccc(F)cc1` was run?
Its Potency is active: 13.4 µM.

For `O=C(NCc1ccccn1)[C@@H]1CCCN1C(=O)[C@@H]1CCCN1C(=O)c1ccccc1`, which max response, negative = inhibition is on record?
Its max response, negative = inhibition is inactive: -3.01%.

How did the Potency turn out when `O=C(O)CSc1nnc(-c2ccccc2)c(-c2ccccc2)n1` was run?
The Potency was active: 9.47 µM.

For `S=C(Nc1ccc2nsnc2c1)NC1CCCCC1`, which Potency is on record?
Its Potency is inconclusive: 37.7 µM [inhibitor, single point].

How did the Potency turn out when `CC1=C(C#N)C(c2ccccc2)C2=C(N1)c1ccccc1C2=O` (centres undefined) was run?
The Potency was inconclusive: 26.7 µM [inhibitor, single point].

`O=C(Nc1ccc(Cl)cc1)NC1CCCC1Cc1ccco1` (centres undefined) was tested. Which max response, negative = inhibition did it give?
The max response, negative = inhibition was inactive: -8%.

How did the Potency turn out when `CC[C@@H]1CC=C[C@H]2[C@H]1C(=O)N(Cc1ccccc1)[C@H]2c1ccoc1` was run?
Its Potency is inconclusive: 11.9 µM [inhibitor, partial curve].

`Cc1ccc(/C=C/C(=O)NCCc2cccc(Cl)c2)o1` was tested. Which Potency did it give?
The Potency was active: 29.9 µM.

With `Cc1cccc(NC(=O)CCc2c(C)nc3ncnn3c2C)n1` as the compound, how does the Potency read?
Its Potency is inconclusive: 21.2 µM [inhibitor, single point].

How did the Potency turn out when `O=C(CCCN1C(=O)/C(=C/c2ccco2)SC1=S)Nc1ccccc1C(=O)O` was run?
The Potency was inconclusive: 10.6 µM [inhibitor, partial curve].

For `Cc1oc(-c2ccc(Cl)cc2)nc1CS(=O)CC(=O)NC1CCCCCC1` (centres undefined), which max response, negative = inhibition is on record?
The max response, negative = inhibition was inconclusive: -32.2% [inhibitor].

Which Potency does the source give for `O=C(COC(=O)Cc1cccc(C(F)(F)F)c1)NCc1ccco1` here?
The Potency was inconclusive: 29.9 µM [inhibitor, partial curve].

`Cc1ccc(S(=O)(=O)CCC(=O)N(CCN2CCOCC2)c2nc3ccccc3s2)cc1` was tested. Which Potency did it give?
The Potency was inconclusive: 16.8 µM [inhibitor, partial curve].

How did the Potency turn out when `COCCCNC(=O)c1cc(=O)n(Cc2ccc(Cl)cc2)c2ccccc12` was run?
Its Potency is inconclusive: 21.2 µM [inhibitor, single point].

For `Cn1c(N)c(C#N)c2c(c1=S)CSC(C)(C)C2`, which max response, negative = inhibition is on record?
The max response, negative = inhibition was inactive: -26.7%.

With `Oc1ccc(Cl)cc1-c1cc(-c2cccc(Br)c2)n[nH]1` as the compound, how does the max response, negative = inhibition read?
The max response, negative = inhibition was inactive: 0.0429%.

For `CCS(=O)(=O)CCSC(=N)N`, which Potency is on record?
The Potency was inconclusive: 23.8 µM [inhibitor, single point].

`S=c1nc(-c2csc3c2CCCC3)[nH][nH]1` was tested. Which Potency did it give?
Its Potency is active: 26.7 µM.

How did the Potency turn out when `N#Cc1c(SCC(=O)Nc2nccs2)sc2c(O)cc(=O)[nH]c12` was run?
The Potency was inconclusive: 21.2 µM [inhibitor, partial curve].

Which Potency does the source give for `Cc1c(C(=O)c2ccc(Cl)cc2Cl)cnc2cc3c(cc12)OCO3` here?
The Potency was active: 29.9 µM.

Which Potency does the source give for `CCOc1ccccc1NC(=O)CCS(=O)(=O)c1ccc2c(c1)CCN2C(C)=O` here?
Its Potency is active: 21.2 µM.

How did the max response, negative = inhibition turn out when `COc1cc(Cn2c(=O)oc3ccc(C)cc32)ccc1OC(C)C` was run?
Its max response, negative = inhibition is inactive: -9.55%.

How did the Potency turn out when `COc1ccc2c(c1)c[n+](C)c1c3cc(OC)c(OC)cc3ccc21` was run?
Its Potency is active: 11.9 µM.
